Assay results taken from patent US20240207243A1, “METHOD OF TREATING LAMINOPATHIES” (Eiger Biopharmaceuticals, Inc., priority 2019, published 2024).
At least one read-out could not be matched to a standard name with certainty.

Assay: Multiple-dose lonafarnib PK (100 mg twice daily) in loperamide study
Assay type: in vivo, human
Conditions: steady state

NC(=O)N1CCC(CC(=O)N2CCC([C@H]3c4ncc(Br)cc4CCc4cc(Cl)cc(Br)c43)CC2)CC1 [lonafarnib]
time of lonafarnib Cmax after dosing: approximately 4 hours
